Experimental findings from publication PMC9468337 are described below.

Amino acid sequences for entries named in this document (tags omitted).
UniProt Q3T906: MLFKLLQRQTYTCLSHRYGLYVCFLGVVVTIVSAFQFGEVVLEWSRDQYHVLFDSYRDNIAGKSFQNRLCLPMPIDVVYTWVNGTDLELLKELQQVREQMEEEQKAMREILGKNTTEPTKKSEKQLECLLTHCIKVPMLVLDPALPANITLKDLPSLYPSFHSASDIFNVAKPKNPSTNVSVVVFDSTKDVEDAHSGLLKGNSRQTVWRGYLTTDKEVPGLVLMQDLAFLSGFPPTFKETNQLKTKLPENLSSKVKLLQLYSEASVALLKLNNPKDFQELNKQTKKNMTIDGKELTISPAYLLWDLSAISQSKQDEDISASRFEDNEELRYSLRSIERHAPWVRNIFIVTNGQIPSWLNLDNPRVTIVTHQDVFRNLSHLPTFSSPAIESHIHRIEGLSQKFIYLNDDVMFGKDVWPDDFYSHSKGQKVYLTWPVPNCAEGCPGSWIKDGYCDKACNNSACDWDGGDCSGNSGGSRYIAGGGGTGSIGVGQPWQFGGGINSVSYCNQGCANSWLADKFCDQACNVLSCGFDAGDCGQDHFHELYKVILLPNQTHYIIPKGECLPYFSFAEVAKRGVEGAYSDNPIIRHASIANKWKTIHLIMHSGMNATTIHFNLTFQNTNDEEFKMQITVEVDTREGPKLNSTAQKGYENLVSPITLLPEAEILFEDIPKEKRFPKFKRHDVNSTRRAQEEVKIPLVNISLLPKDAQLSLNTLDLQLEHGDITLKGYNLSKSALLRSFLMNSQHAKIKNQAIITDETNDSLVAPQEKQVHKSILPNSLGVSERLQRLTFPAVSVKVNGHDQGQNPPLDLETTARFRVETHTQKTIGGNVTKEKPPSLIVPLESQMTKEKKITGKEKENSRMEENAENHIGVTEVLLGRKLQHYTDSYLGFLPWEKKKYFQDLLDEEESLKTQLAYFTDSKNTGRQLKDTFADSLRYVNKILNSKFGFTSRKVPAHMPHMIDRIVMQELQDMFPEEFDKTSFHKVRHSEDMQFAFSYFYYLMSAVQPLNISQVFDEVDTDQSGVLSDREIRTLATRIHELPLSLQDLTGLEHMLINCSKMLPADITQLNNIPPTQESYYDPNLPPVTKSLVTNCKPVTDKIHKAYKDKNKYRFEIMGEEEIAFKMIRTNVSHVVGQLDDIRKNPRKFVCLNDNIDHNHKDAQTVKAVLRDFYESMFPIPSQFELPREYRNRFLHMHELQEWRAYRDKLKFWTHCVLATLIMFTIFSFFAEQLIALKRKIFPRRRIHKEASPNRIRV

No constants are given. Whether binding was seen depends on the method and setting. Binding seen in cells or lysates may run through a third protein. Some binding calls cover weakened binding; strength is not graded here.

Assay [1] has as its target T1, TMEM251 (GNPTAB cleavage and activity factor), short isoform (human) (UniProt Q8N6I4).
T1 sequence: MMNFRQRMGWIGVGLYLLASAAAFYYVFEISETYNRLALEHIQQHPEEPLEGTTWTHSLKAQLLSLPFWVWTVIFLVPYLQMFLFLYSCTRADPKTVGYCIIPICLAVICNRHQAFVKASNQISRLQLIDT
The experiment in a line: co-IP; reciprocal IP 48 h after transfection; lysis in 20 mM Tris pH 8.0, 150 mM NaCl, 1% Triton; anti-FLAG M2, anti-V5 or anti-HA beads at 4 °C; washed 4 times with lysis buffer; western blot.

The target in assay [2] is GNPTAB (GNPT α/β precursor) (UniProt Q3T906). The description is as above.

With “GNPTAB (GNPT α/β precursor) (from UniProt Q3T906 1-1256) (enzyme)”, the binding entry in assay [1] is on record as “binds”.

B1: TMEM251 (GNPTAB cleavage and activity factor), short isoform (protein, UniProt Q8N6I4-2 1-131)
chain: T1 sequence
Regarding B1, in assay [2], the binding entry is “binds”.
